Measurements as given in patent US20090093069A1, “Topiramate Immunoassays” (ARK Diagnostics, Inc., priority 2007, published 2009).

These compounds were tested on antibody from rabbit #11341 (assay: Crossreactivity to topiramate metabolites in the homogeneous enzyme immunoassay (HITACHI 917)). Details: metabolite 50.0 μg/mL, in the presence of 20 μg/mL topiramate; concentration with metabolite minus without.
Assay type: binding
Protocol: % Crossreactivity=100×(“apparent concentration of measurand”/“concentration of crossreactant”)
(§1) The ARK Assay for topiramate is conducted using a liquid, ready-to-use, two-reagent kit. […] Topiramate containing sample is incubated with antibody reagent followed by the addition of the enzyme conjugate reagent. The enzyme conjugate activity decreases upon binding to the antibody. The enzyme conjugate, which is not bound to the antibody, catalyzes the oxidation of glucose 6-phosphate (G6P). The oxidation of G6P is coupled with the reduction of NAD^+ to NADH, which can be measured at 340 nm. The change in the absorbance at 340 nm can be measured spectrophotometrically. The topiramate concentration in a specimen can be measured in terms of G6PDH activity. The increase in the rate at 340 nm is due to the formation of NADH and is proportional to the enzyme conjugate activity. […] The assay rate increases with increasing the concentration of drug in the sample.
The apparent topiramate concentration for the metabolite is the difference in concentration with metabolite minus the concentration without metabolite.

| SMILES | Apparent Topiramate [µg/mL] |
| --- | --- |
| CC1(C)O[C@H]2[C@@H]3O[C@@](C)(CO)O[C@@H]3CO[C@@]2(COS(N)(=O)=O)O1 [10-OH-Topiramate, 10-hydroxytopiramate] | 1.60 |
| CC1(C)O[C@H]2[C@@H]3O[C@](C)(CO)O[C@@H]3CO[C@@]2(COS(N)(=O)=O)O1 [9-OH-Topiramate, 9-hydroxytopiramate] | 1.59 |

The compounds below were run on rabbit polyclonal antibody #11341 (assay: Coadministered drug interference study in the homogeneous enzyme immunoassay (HITACHI 917)). Details: 5.0 μg/mL drug added to human serum containing 20.0 μg/mL topiramate.
Assay type: binding
Protocol: The antibody was added into the antibody diluent to prepare the antibody reagent. The antibody reagent consists of antibody as prepared above, buffer, stabilizers, preservatives, and the substrates for the enzyme conjugate NAD and glucose 6 phosphate. […] The enzyme conjugate reagent consists of the conjugate, buffer, stabilizers and preservatives.
as §1
A high concentration of each coadministered drug was spiked into normal human serum with containing topiramate 20 μg/mL and assayed. Each sample was assayed in duplicate. […] The percentage concentration above 20.0 μg/mL of topiramate was calculated for each coadministered drug tested.

| SMILES | Result (apparent topiramate concentration) [µg/mL] |
| --- | --- |
| NC(N)=Nc1nc(CSCCC(N)=NS(N)(=O)=O)cs1 [Famotidine] | 19.99 |

Same assay, conditions: 10.0 μg/mL drug added to human serum containing 20.0 μg/mL topiramate

| SMILES | Result (apparent topiramate concentration) [µg/mL] |
| --- | --- |
| NS(=O)(=O)c1cc(C(=O)O)c(NCc2ccco2)cc1Cl [Furosemide] | 20.01 |

Same assay, conditions: 50.0 μg/mL drug added to human serum containing 20.0 μg/mL topiramate

| SMILES | Result (apparent topiramate concentration) [µg/mL] |
| --- | --- |
| CC(=O)Nc1ccc(O)cc1 [Acetominophen] | 19.81 |
| O=C1NC(=O)C(c2ccccc2)(c2ccccc2)N1 [Phenytoin] | 20.16 |
| CC(C)Cc1ccc(C(C)C(=O)O)cc1 (stereo not drawn) [Ibuprofen] | 21.24 |
| CN1C(=O)CN=C(c2ccccc2)c2cc(Cl)ccc21 [Diazepam] | 20.41 |
| O=C1CN=C(c2ccccc2Cl)c2cc([N+](=O)[O-])ccc2N1 [Clonazepam] | 20.44 |
| CC(=O)Nc1nnc(S(N)(=O)=O)s1 [Acetazolamide] | 20.28 |

Same assay, conditions: 100.0 μg/mL drug added to human serum containing 20.0 μg/mL topiramate

| SMILES | Result (apparent topiramate concentration) [µg/mL] |
| --- | --- |
| CC(=O)Oc1ccccc1C(=O)O [Acetylsalicyclic Acid] | 20.25 |
| Cn1c(=O)c2c(ncn2C)n(C)c1=O [Caffeine] | 20.35 |
| CCC1(c2ccccc2)C(=O)NC(=O)NC1=O [Phenobarbitol] | 21.08 |
| CCC1(c2ccccc2)C(=O)NCNC1=O [Primidone] | 18.17 |
| COCCc1ccc(OCC(O)CNC(C)C)cc1 (stereo not drawn) [Metoprolol] | 20.44 |
| NC(=O)N1c2ccccc2C=Cc2ccccc21 [Carbamazepine] | 19.57 |
| Nc1nnc(-c2cccc(Cl)c2Cl)c(N)n1 [Lamotrogine] | 18.98 |
| NCC1(CC(=O)O)CCCCC1 [Gabapentin] | 19.51 |
| COc1ccc(CCN(C)CCCC(C#N)(c2ccc(OC)c(OC)c2)C(C)C)cc1OC (stereo not drawn) [Verapamil] | 21.16 |
| NS(=O)(=O)c1cc(C2(O)NC(=O)c3ccccc32)ccc1Cl (stereo not drawn) [Chlorthalidone] | 20.16 |

Same assay, conditions: 200.0 μg/mL drug added to human serum containing 20.0 μg/mL topiramate

| SMILES | Result (apparent topiramate concentration) [µg/mL] |
| --- | --- |
| NS(=O)(=O)Cc1noc2ccccc12 [Zonisamide] | 20.16 |
| CCCC(CCC)C(=O)O [Valproic Acid] | 20.99 |

Same assay, conditions: 500.0 μg/mL drug added to human serum containing 20.0 μg/mL topiramate

| SMILES | Result (apparent topiramate concentration) [µg/mL] |
| --- | --- |
| NC(=O)OCC(COC(N)=O)c1ccccc1 [Felbamate] | 21.09 |
| CCC1(C)CC(=O)NC1=O (stereo not drawn) [Ethosuxamide] | 19.57 |

Same assay, conditions: 750.0 μg/mL drug added to human serum containing 20.0 μg/mL topiramate

| SMILES | Result (apparent topiramate concentration) [µg/mL] |
| --- | --- |
| CCCCNC(=O)NS(=O)(=O)c1ccc(C)cc1 [Tolbutamide] | 19.39 |
| O=C(O)c1ccccc1O [Salicylic Acid] | 19.57 |

Same assay, conditions: 2000.0 μg/mL drug added to human serum containing 20.0 μg/mL topiramate

| SMILES | Result (apparent topiramate concentration) [µg/mL] |
| --- | --- |
| Nc1ccc(S(N)(=O)=O)cc1 [Sulfanilamide] | 18.77 |
